Source: PubChem BioAssay AID1224828 (NIAID, 2016)
This is one part, drawn at random, of about 17,000 reagents. 762 of them (4.5%) were called active. 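Active calls include both raised and lowered p65 entry, mostly lowered; wells with fewer than 50 cells lack a z-score.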 Raw values are not corrected between plates.

Test: 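Knock-downs that increase or decrease LPS-induced p65 nuclear translocation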 (primary screen)
Cells: mouse RAW264.7 G9 macrophage reporter cells (GFP-p65, Tnf promoter-mCherry)
Reagent: siRNA pool against mouse genes, 100 nM
Duration: 2 days siRNA transfection, then 40 min LPS before fixation
Treatment: LPS (Salmonella minnesota R595) at 10 ng/ml
Measurement: 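Imaged p65 nuclear translocation ratio, normalised to the plate median, converted to robust z-scores and averaged across two replicates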
Scale: p65 translocation robust z-score: higher = more nuclear NF-kappaB p65 after LPS than the plate median; nuclear/cytoplasmic p65 ratio: higher = more nuclear NF-kappaB p65
Rule for the call: 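Called active when z exceeds 3.3 or falls under -1.56 (median of Tlr4 controls), giving activity score of at least 50; no calls for control wells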
Calls: active = hit (p65 shift raised or lowered); inactive = no clear change

target | p65 translocation robust z-score | nuclear/cytoplasmic p65 ratio, rep 1 | nuclear/cytoplasmic p65 ratio, rep 2 | low cell count flag | Outcome
Gtf2ird1 (general transcription factor II I repeat domain-containing 1) | -0.99 | 1.21 | 1.34 | enough cells to score | inactive
Acrbp (proacrosin binding protein) | -0.71 | 1.46 | 1.62 | enough cells to score | inactive
Mmp3 (matrix metallopeptidase 3) | 0.78 | 1.51 | 1.48 | enough cells to score | inactive
Ncam1 (neural cell adhesion molecule 1) | -0.61 | 1.29 | 1.33 | enough cells to score | inactive
Rab10os (RAB10, member RAS oncogene family, opposite strand) | 0.1 | 1.39 | 1.44 | enough cells to score | inactive
Gclm (glutamate-cysteine ligase, modifier subunit) | -3.05 | 1.1 | 1.09 | enough cells to score | active
Rcor2 (REST corepressor 2) | 1.08 | 1.56 | 1.34 | enough cells to score | inactive
Ppp4r3a (protein phosphatase 4 regulatory subunit 3A) | -0.38 | 1.52 | 1.36 | enough cells to score | inactive
App (amyloid beta precursor protein) | 0.12 | 1.68 | 1.6 | enough cells to score | inactive
Zfp608 (zinc finger protein 608) | 2.29 | 1.62 | 1.49 | enough cells to score | inactive
Gsta2 (glutathione S-transferase, alpha 2 (Yc2)) | 0 | 1.66 | 1.53 | enough cells to score | inactive
Marcks (myristoylated alanine rich protein kinase C substrate) | -1.21 | 1.19 | 1.2 | enough cells to score | inactive
Camta2 (calmodulin binding transcription activator 2) | -1.19 | 1.4 | 1.47 | enough cells to score | inactive
Ncan (neurocan) | -1.32 | 1.42 | 1.53 | enough cells to score | inactive
Gatad2a (GATA zinc finger domain containing 2A) | -0.23 | 1.6 | 1.75 | enough cells to score | inactive
Nlrp9a (NLR family, pyrin domain containing 9A) | -0.15 | 1.42 | 1.32 | enough cells to score | inactive
Tac1 (tachykinin 1) | 1.14 | 1.66 | 1.7 | enough cells to score | inactive
Fstl4 (follistatin-like 4) | -2.31 | 1.19 | 1.26 | enough cells to score | active
Entpd7 (ectonucleoside triphosphate diphosphohydrolase 7) | 0.4 | 1.66 | 1.51 | enough cells to score | inactive
Dapk2 (death-associated protein kinase 2) | 0.24 | 1.67 | 1.46 | enough cells to score | inactive
Ssh2 (slingshot protein phosphatase 2) | -0.67 | 1.45 | 1.47 | enough cells to score | inactive
Alg12 (ALG12 alpha-1,6-mannosyltransferase) | 0.67 | 1.73 | 1.77 | enough cells to score | inactive
Calb2 (calbindin 2) | -0.84 | 1.46 | 1.66 | enough cells to score | inactive
Cd200r1 (CD200 receptor 1) | 1.64 | 1.71 | 1.5 | enough cells to score | inactive

3 entries from above, set out differently:
Camta2 (calmodulin binding transcription activator 2)
- p65 translocation robust z-score: -1.19
- nuclear/cytoplasmic p65 ratio, rep 1: 1.4
- nuclear/cytoplasmic p65 ratio, rep 2: 1.47
- low cell count flag: enough cells to score
- Outcome: inactive

Ncan (neurocan)
- p65 translocation robust z-score: -1.32
- nuclear/cytoplasmic p65 ratio, rep 1: 1.42
- nuclear/cytoplasmic p65 ratio, rep 2: 1.53
- low cell count flag: enough cells to score
- Outcome: inactive

Gatad2a (GATA zinc finger domain containing 2A)
- p65 translocation robust z-score: -0.23
- nuclear/cytoplasmic p65 ratio, rep 1: 1.6
- nuclear/cytoplasmic p65 ratio, rep 2: 1.75
- low cell count flag: enough cells to score
- Outcome: inactive
